The target of experiment [1] is human PVRIG protein on the cell membrane surface (human). The experiment is described as follows: flow cytometry on 293T-human PVRIG cells. On the technique in general: A flow cytometer gives signals particle by particle.
Experiment [2] has the same target. The experiment is described as follows: flow cytometry on 293T-human PVRIG cells, AF647 goat anti-mouse IgG, percent positive cells.
Experiment [3] addresses Macaca fascicularis PVRIG protein on the cell membrane surface (Macaca fascicularis). As to the kind of experiment: flow cytometry on 293T-Macaca fascicularis PVRIG cells.
The target in experiment [4] is human PVRIG protein on the cell membrane surface (human). As to the kind of experiment: flow cytometry on 293T-human PVRIG cells, AF647 mouse anti-human IgG-Fc, percent positive cells.

Changes are numbered by the printed parent chain. Results are given in words; binding and its absence hold for the method and conditions named. A result given as binding can be weak or reduced; the word gives no strength.

B1: Antibody 3 (antibody, V domains shown)
VH: EVQLQQSGPELVKPGASMKISCKASGYSFTAYTMNWVKQSHGKNLEWIGLINPYNGGTSYNQKFKGKATLTGDKSSSTAYMELLSVTSEDSAVYFCAREGNYYGSRGDFDYWGQGTTLTVSS
VL: DILLTQSPAILSVSPGERVSFSCRASQTIVTNILWYQQRTNGSPRLLIRYASESISGIPSRFSGSGSGTDFTLSINSVESEDIAHYYCQQSHSWPFTFGSGTKLEIK
Take B1: the binding entry in experiment [1] and in experiment [2] was “binds” throughout.

B2: Antibody 4-hu1 (antibody, human IgG4 S228P, kappa, V domains shown)
VH: EVQLVQSGAEVKKPGSSVKVSCKASGGTFSSFSIEWVRQAPGQGLEWMGEILPGSNSTNYNEKFKGRVTITADESTSTAYMELSSLRSEDTAVYYCARYWFAYWGQGTLVTVSS
VL: DIVMTQSPDSLAVSLGERATINCKSSQSLLNSGNQKNYLAWYQQKPGQPPKLLIYGASTRESGVPDRFSGSGSGTDFTLTISSLQAEDVAVYYCQNAHSYPPTFGQGTKLEIKR
For B2, the binding result in experiment [3], in experiment [1] and in experiment [4] was “binds” throughout.

B3: Antibody 4-hu10 (antibody, human IgG4 S228P, kappa, V domains shown)
VH: B2 VH with G27Y, M48I, I70F, E74T, S77N, A97S, R98S
VL: B2 VL
Turning to B3, the binding result in experiment [3], in experiment [1] and in experiment [4] was “binds” throughout.

B4: Antibody 4-hu3 (antibody, human IgG4 S228P, kappa, V domains shown)
VH: B2 VH with I70F, A97S, R98S
VL: B2 VL
With B4, the binding entry in experiment [3], in experiment [1] and in experiment [4] was “binds” in each case.

B5: Antibody 4-hu7 (antibody, human IgG4 S228P, kappa, V domains shown)
VH: B2 VH with G27Y, A97S, R98S
VL: B2 VL
With B5, the binding entry in experiment [3], in experiment [1] and in experiment [4] was “binds” each time.

B6: Antibody 4-hu4 (antibody, human IgG4 S228P, kappa, V domains shown)
VH: B2 VH with M48I, I70F, A97S, R98S
VL: B2 VL
For B6, the binding entry in experiment [3], in experiment [1] and in experiment [4] was “binds” throughout.

B7: Antibody 4-hu5 (antibody, human IgG4 S228P, kappa, V domains shown)
VH: B2 VH with M48I, I70F, E74T, S77N, A97S, R98S
VL: B2 VL
Regarding B7, the binding entry in experiment [3], in experiment [1] and in experiment [4] was “binds” throughout.

B8: Antibody 4-hu11 (antibody, human IgG4 S228P, kappa, V domains shown)
VH: B2 VH with G27Y, M48I, R67K, V68A, I70F, E74T, S77N, A97S, R98S
VL: B2 VL
For the molecule B8, the binding result in experiment [3], in experiment [1] and in experiment [4] was “binds” in each case.

B9: Antibody 4-hu9 (antibody, human IgG4 S228P, kappa, V domains shown)
VH: B2 VH with G27Y, M48I, I70F, A97S, R98S
VL: B2 VL
Consider B9, for which the binding entry in experiment [3] and in experiment [1] was “binds” throughout.

B10: Antibody 4-hu2 (antibody, human IgG4 S228P, kappa, V domains shown)
VH: B2 VH with A97S, R98S
VL: B2 VL
For the molecule B10, the binding entry in experiment [3], in experiment [1] and in experiment [4] was “binds” throughout.

B11: Antibody 4-hu6 (antibody, human IgG4 S228P, kappa, V domains shown)
VH: B2 VH with M48I, R67K, V68A, I70F, E74T, S77N, A97S, R98S
VL: B2 VL
Regarding B11, the binding entry in experiment [3], in experiment [1] and in experiment [4] was “binds” in each case.

B12: Antibody 4-hu8 (antibody, human IgG4 S228P, kappa, V domains shown)
VH: B2 VH with G27Y, I70F, A97S, R98S
VL: B2 VL
As for B12, the binding result in experiment [3], in experiment [1] and in experiment [4] was “binds” each time.

B13: Antibody 2 (antibody, V domains shown)
VH: QVQLQQSGAELTKPGASVKISCKATGYTFSTFAIDWIKQRPGHGLAWIGEILPGGNNTNYNEKFKGKATFTADTSSNTAYMHLSSLTSEDSAVYYCSTYWFAYWGQGTLVTVSA
VL: DIVMTQSPSSLSVSAGEKVTMSCKSSQSLLNSGNQKNYLAWYQQKPGQPPKLLMYGASTRESGVPDRFTGSGSGTDFTLTISSVQAEDLAVYYCQNAHSYPPAFGAGTKLELK
Turning to B13, the binding result in experiment [1] and in experiment [2] was “binds” in each case.

B14: Antibody 1 (antibody, V domains shown)
VH: B13 VH with T12M, H43P, G55I
VL: B13 VL with S22T, A103T
In the case of B14, the binding entry in experiment [1] and in experiment [2] was “binds” in each case.
